From the supplement of paper PMC7666118 come the findings set out here.

By UniProt entry, the sequences of proteins in these tests, tags left out. Where a name states a change or a piece, a line headed by the entry shows the natural chain unless it says otherwise.
UniProt Q96KA5: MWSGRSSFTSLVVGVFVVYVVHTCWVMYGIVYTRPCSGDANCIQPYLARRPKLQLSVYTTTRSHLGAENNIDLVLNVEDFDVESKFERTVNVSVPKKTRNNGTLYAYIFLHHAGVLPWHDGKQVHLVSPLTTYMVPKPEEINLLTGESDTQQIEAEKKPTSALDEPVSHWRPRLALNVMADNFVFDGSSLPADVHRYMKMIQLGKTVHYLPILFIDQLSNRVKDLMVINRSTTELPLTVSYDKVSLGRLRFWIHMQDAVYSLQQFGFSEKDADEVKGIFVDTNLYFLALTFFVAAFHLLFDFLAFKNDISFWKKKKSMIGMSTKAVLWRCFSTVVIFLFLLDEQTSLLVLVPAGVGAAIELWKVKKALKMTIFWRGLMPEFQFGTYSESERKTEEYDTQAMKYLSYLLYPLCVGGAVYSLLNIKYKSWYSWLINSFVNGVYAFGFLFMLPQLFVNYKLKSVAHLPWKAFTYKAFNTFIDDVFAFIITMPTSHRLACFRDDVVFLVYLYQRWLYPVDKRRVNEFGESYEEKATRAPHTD
UniProt Q9GZQ3, whole entry: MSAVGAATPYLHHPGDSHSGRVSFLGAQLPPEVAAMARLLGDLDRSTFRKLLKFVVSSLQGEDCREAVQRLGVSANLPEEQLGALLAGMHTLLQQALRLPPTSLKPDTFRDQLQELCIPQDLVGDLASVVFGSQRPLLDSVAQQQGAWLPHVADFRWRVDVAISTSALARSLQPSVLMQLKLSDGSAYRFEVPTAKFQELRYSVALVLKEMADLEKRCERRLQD
UniProt Q9BT09: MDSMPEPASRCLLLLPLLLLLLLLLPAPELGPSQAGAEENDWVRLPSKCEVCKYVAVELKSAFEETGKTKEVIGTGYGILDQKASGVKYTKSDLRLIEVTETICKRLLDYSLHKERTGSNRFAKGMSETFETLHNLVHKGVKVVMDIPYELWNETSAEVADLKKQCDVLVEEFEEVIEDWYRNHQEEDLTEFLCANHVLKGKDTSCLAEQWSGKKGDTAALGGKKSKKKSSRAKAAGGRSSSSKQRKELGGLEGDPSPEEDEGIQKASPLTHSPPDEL
UniProt Q8TAP6: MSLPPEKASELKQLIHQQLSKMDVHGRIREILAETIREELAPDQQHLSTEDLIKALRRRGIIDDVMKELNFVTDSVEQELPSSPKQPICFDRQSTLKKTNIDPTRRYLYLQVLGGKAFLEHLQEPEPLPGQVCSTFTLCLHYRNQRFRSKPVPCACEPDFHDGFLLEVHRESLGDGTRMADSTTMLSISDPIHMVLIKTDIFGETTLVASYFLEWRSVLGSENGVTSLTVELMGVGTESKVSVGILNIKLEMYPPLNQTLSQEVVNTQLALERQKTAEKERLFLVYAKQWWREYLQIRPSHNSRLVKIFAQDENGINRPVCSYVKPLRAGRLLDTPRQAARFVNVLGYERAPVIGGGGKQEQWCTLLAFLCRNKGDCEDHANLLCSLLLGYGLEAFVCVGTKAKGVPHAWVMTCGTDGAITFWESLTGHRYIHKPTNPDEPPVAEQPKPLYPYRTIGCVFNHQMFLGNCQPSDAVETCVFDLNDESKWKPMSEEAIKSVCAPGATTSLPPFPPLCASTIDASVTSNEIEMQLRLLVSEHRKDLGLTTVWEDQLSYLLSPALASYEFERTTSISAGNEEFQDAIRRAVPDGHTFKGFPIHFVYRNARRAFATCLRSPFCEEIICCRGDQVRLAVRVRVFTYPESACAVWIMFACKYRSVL
UniProt Q8WTW3: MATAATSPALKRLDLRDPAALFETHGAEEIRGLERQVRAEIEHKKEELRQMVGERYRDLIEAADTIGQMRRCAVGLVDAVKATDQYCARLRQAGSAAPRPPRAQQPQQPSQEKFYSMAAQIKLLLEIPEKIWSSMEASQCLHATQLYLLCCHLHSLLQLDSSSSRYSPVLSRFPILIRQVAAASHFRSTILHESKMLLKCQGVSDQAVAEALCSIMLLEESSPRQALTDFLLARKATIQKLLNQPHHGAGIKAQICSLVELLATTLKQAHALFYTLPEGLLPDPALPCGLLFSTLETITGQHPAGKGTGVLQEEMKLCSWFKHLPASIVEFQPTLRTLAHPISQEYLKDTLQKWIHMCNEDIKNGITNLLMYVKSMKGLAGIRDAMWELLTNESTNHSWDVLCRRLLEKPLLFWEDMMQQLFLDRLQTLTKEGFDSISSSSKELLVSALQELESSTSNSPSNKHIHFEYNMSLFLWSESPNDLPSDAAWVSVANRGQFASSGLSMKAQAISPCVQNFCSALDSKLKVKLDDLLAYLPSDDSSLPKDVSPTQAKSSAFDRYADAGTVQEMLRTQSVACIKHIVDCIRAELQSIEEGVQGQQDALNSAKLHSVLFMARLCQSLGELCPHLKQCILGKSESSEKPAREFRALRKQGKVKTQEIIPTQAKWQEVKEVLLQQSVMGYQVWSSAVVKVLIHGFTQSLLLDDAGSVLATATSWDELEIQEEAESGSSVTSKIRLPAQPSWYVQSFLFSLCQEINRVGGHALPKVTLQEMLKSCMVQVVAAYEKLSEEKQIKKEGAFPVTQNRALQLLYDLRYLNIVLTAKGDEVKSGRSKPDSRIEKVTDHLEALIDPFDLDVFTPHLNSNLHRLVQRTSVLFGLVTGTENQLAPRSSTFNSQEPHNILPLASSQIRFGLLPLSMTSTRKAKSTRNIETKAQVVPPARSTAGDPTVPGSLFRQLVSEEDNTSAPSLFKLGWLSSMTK
UniProt Q9NRB3: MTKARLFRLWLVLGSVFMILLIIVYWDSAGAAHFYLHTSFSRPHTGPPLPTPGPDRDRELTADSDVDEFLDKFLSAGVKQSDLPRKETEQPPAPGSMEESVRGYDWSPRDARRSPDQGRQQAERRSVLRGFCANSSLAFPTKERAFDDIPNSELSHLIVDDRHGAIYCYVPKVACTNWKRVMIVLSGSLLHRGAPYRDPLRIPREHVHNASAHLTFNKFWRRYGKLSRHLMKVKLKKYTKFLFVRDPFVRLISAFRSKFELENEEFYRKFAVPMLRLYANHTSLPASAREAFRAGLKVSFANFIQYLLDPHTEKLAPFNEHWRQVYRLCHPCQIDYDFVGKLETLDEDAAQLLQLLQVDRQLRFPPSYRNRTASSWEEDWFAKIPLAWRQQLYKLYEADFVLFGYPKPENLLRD
UniProt Q9H444: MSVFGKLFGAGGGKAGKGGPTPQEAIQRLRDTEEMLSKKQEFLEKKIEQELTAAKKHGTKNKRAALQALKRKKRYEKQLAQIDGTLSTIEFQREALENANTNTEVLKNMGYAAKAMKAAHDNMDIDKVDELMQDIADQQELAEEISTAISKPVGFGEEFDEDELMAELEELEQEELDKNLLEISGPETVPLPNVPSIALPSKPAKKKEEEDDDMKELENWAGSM
UniProt P50750, whole entry: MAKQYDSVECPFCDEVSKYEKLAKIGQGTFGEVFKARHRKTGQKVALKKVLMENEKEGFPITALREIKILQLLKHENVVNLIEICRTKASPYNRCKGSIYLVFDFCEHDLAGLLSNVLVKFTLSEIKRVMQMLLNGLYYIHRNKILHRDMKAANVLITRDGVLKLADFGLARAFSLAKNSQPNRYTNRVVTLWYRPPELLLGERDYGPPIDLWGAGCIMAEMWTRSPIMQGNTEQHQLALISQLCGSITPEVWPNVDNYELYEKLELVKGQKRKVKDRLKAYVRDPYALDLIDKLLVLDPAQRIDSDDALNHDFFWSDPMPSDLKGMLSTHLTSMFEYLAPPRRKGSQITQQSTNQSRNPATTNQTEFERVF
UniProt P49427: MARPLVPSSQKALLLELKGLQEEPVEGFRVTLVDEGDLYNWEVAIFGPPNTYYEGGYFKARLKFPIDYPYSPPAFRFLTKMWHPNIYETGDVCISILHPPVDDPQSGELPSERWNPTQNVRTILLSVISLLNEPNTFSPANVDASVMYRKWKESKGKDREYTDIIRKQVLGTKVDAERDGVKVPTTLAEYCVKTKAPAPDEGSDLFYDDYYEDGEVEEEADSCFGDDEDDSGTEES
UniProt Q9Y6K0: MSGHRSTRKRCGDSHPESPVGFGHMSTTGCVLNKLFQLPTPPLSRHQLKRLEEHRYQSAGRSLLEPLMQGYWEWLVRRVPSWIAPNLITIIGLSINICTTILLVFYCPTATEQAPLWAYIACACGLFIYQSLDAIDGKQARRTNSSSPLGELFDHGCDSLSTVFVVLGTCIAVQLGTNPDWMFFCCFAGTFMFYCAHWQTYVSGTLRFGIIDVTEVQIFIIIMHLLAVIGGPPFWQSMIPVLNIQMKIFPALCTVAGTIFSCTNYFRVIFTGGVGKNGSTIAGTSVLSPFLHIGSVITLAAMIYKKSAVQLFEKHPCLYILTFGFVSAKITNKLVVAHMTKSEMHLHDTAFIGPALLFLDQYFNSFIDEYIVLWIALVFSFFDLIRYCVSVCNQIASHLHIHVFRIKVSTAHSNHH
UniProt P19397: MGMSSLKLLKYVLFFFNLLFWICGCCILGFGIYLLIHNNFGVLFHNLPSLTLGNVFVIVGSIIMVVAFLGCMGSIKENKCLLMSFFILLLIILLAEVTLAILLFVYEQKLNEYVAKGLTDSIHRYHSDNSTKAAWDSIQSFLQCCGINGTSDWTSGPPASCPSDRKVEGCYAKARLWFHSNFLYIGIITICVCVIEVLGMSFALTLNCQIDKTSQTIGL
UniProt Q9H9A5, whole entry: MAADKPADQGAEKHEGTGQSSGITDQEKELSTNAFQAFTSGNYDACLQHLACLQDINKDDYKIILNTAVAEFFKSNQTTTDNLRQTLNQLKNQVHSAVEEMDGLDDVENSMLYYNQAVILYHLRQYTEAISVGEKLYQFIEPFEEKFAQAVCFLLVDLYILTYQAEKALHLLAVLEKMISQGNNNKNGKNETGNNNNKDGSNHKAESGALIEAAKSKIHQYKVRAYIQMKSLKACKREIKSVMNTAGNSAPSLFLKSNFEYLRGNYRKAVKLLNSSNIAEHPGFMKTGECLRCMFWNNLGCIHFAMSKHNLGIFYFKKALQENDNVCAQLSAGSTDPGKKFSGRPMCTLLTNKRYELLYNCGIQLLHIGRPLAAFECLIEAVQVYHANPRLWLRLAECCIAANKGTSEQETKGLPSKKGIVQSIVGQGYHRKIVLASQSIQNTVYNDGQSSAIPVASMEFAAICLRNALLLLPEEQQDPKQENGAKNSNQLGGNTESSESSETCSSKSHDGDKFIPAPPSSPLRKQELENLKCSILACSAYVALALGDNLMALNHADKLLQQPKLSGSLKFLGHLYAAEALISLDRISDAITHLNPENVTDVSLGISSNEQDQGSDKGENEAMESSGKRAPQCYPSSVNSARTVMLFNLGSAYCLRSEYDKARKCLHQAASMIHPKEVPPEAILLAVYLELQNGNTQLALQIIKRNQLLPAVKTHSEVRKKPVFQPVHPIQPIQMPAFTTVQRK
UniProt Q6UXH1: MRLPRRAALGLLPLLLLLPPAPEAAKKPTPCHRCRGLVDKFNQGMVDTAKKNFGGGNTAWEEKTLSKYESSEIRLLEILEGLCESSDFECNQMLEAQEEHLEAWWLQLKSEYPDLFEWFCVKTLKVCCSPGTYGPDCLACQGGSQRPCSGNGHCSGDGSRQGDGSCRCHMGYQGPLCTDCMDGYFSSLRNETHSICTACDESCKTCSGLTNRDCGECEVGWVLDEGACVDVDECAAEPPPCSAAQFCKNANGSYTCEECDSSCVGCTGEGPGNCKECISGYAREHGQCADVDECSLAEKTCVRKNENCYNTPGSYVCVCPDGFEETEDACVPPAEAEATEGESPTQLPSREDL
UniProt Q9UKY7: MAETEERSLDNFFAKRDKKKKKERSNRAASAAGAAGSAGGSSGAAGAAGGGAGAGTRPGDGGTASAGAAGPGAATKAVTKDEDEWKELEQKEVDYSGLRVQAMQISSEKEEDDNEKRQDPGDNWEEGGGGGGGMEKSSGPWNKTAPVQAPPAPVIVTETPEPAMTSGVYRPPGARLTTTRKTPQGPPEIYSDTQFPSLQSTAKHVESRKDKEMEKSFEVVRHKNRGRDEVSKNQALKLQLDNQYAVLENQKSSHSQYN
UniProt Q13042, whole entry: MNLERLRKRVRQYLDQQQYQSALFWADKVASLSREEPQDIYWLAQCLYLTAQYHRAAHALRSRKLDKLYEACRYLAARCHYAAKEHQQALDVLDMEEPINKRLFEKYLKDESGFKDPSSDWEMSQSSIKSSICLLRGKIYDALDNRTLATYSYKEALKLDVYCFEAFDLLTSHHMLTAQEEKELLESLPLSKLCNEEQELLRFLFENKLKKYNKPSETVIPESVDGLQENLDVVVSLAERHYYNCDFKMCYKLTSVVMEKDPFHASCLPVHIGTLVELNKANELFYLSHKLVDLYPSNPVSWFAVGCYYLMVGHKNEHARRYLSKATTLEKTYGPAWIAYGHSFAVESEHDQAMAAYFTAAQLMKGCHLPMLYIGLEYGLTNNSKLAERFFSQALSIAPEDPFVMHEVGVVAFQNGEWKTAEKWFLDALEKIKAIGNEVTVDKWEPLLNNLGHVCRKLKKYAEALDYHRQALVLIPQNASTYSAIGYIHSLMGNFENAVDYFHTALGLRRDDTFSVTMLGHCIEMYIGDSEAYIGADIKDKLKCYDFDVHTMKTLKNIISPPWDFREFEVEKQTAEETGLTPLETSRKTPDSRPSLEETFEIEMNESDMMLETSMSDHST

This is one part of the list.

Compound in this assay: COc1ccc(Cn2ccc3cc(C)c(C(=O)NO)cc32)cc1
As to the kind of experiment: dose-dependent thermal stabilisation call (2D-TPP, DLPTP, 10% FDR) (binary (1 = stabilised)); higher = stabilised by the compound. Conditions: system: HL-60 intact cells; concentration range 0.04-10 µM. The procedure: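 2D thermal proteome profiling in intact HL-60 cells treated with BRD-3811 (0, 0.04, 0.29, 2, 10 uM) for 90 min at 37 C, then heated 3 min at one of 12 temperatures (42-63.9 C). Soluble protein was quantified by TMT10 MS. The value is the DLPTP call of the paper: dose-dependent thermal stabilisation over all temperatures at 10% FDR (F-test of a dose-response against a flat model); one experiment, one call per tested protein.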
As to CLPTM1L (UniProt Q96KA5), the “dose-dependent thermal stabilisation call” value is inactive: 0.

With COG3 (UniProt Q96JB2), the “dose-dependent thermal stabilisation call” value was inactive: 0.

In the case of CDK5RAP2 (UniProt Q96SN8), the “dose-dependent thermal stabilisation call” value is inactive: 0.

As to COMMD5 (UniProt Q9GZQ3), the “dose-dependent thermal stabilisation call” value was inactive: 0.

With CNPY3 (UniProt Q9BT09), the “dose-dependent thermal stabilisation call” value is inactive: 0.

For the target CHCHD4 (UniProt Q8N4Q1), the “dose-dependent thermal stabilisation call” value was inactive: 0.

As for CEP76 (UniProt Q8TAP6), the “dose-dependent thermal stabilisation call” value was inactive: 0.

Take COG1 (UniProt Q8WTW3): the “dose-dependent thermal stabilisation call” value is inactive: 0.

As to CNO (UniProt Q9NUP1), the “dose-dependent thermal stabilisation call” value was inactive: 0.

Consider CHST12 (UniProt Q9NRB3), for which the “dose-dependent thermal stabilisation call” value was inactive: 0.

CD82 (UniProt P27701): the “dose-dependent thermal stabilisation call” value was inactive: 0.

CLASP2 (UniProt O75122): the “dose-dependent thermal stabilisation call” value is inactive: 0.

On to COQ6 (UniProt Q9Y2Z9), for which the “dose-dependent thermal stabilisation call” value was inactive: 0.

Turning to CHMP4A (UniProt Q9BY43), the “dose-dependent thermal stabilisation call” value was inactive: 0.

Consider CLCN5 (UniProt P51795), for which the “dose-dependent thermal stabilisation call” value was inactive: 0.

On to CNOT3 (UniProt O75175), for which the “dose-dependent thermal stabilisation call” value is inactive: 0.

With CHMP4B (UniProt Q9H444), the “dose-dependent thermal stabilisation call” value is inactive: 0.

As to CEBPZ (UniProt Q03701), the “dose-dependent thermal stabilisation call” value was inactive: 0.

Turning to CPD (UniProt O75976), the “dose-dependent thermal stabilisation call” value was inactive: 0.

As to COX2, the “dose-dependent thermal stabilisation call” value is inactive: 0.

Regarding CDK6 (UniProt Q00534), the “dose-dependent thermal stabilisation call” value is inactive: 0.

Turning to CDK9 (UniProt P50750), the “dose-dependent thermal stabilisation call” value was inactive: 0.

Turning to CDC34 (UniProt P49427), the “dose-dependent thermal stabilisation call” value was inactive: 0.

On to CD55 (UniProt P08174), for which the “dose-dependent thermal stabilisation call” value was inactive: 0.

In the case of CLIC1 (UniProt O00299), the “dose-dependent thermal stabilisation call” value was inactive: 0.

For CS (UniProt O75390), the “dose-dependent thermal stabilisation call” value is active: 1.

On to CEPT1 (UniProt Q9Y6K0), for which the “dose-dependent thermal stabilisation call” value is inactive: 0.

For the target CD53 (UniProt P19397), the “dose-dependent thermal stabilisation call” value is inactive: 0.

With CEP135 (UniProt Q66GS9), the “dose-dependent thermal stabilisation call” value was inactive: 0.

Regarding CENPE (UniProt Q02224), the “dose-dependent thermal stabilisation call” value is inactive: 0.

As to CNOT10 (UniProt Q9H9A5), the “dose-dependent thermal stabilisation call” value was inactive: 0.

As for CHKA (UniProt P35790), the “dose-dependent thermal stabilisation call” value is inactive: 0.

For CRELD2 (UniProt Q6UXH1), the “dose-dependent thermal stabilisation call” value was inactive: 0.

With COX6B1 (UniProt P14854), the “dose-dependent thermal stabilisation call” value was inactive: 0.

As to CEP250 (UniProt Q9BV73), the “dose-dependent thermal stabilisation call” value is inactive: 0.

As for CDV3 (UniProt Q9UKY7), the “dose-dependent thermal stabilisation call” value was inactive: 0.

With COX4NB (UniProt O43402), the “dose-dependent thermal stabilisation call” value was inactive: 0.

For the target CDC16 (UniProt Q13042), the “dose-dependent thermal stabilisation call” value was inactive: 0.

For the target CIRH1A (UniProt Q969X6), the “dose-dependent thermal stabilisation call” value is inactive: 0.

As to CEBPB (UniProt P17676), the “dose-dependent thermal stabilisation call” value is inactive: 0.
